# In all, about 390,000 compounds went through this assay and about 760 (0.19%) were called active. The shares of active, inactive and inconclusive entries below differ from those in the screen. Calls come from the whole dose curve; as a rule, active = well fitted inhibition curve with a large enough effect; inconclusive = small, poorly fitted or top-dose-only effect; inactive = flat fitted curve, though single readings scatter. Potencies beside an inconclusive call are fits to weak or partial responses and may not hold up.
# Experiment: qHTS for Inhibitors of Vif-A3F Interactions: qHTS; note: nearly all actives have a fitted effect of over 65% in size
# Conditions: HeLa A3F-eYFP + Vif (tagged APOBEC3F with the HIV-1 protein that degrades it), YFP fluorescence increase; series mostly up to 46.1 µM
# How it was run: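 HeLa cells stably expressing A3F-eYFP plus Vif, plated and incubated overnight at 37 deg C, then exposed to compounds overnight at 37 deg C. Blocked degradation read as raised yellow fluorescence (Ex 488/Em 500-530).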
# Potency is the fitted concentration of half-maximal effect.
row,Structure (SMILES),Potency
1,Cc1[nH]nc2c1C(C1CC=CCC1)C(C#N)=C(N)O2 (stereo not given),inactive
2,CCC(=O)Oc1ccc(NC(=O)c2ccco2)cc1,"inconclusive: 6.31 µM [inhibitor, single point]"
3,COc1ccc(Cn2c(=O)n(Cc3ccco3)c(=O)c3oc4ccccc4c32)cc1,"inconclusive: 17.8 µM [inhibitor, single point]"
4,Cc1cc(OC(C)C(=O)Nc2cccc(-c3nc4ccccc4o3)c2)cc(C)c1Cl (stereo not given),"inconclusive: 35.5 µM [inhibitor, single point]"
5,CC(=O)Nc1sc(C)c(C)c1C(=O)OCC(=O)Nc1ccccc1,active: 11.2 µM
6,Cc1ccc(-c2nc3ncccn3c2Nc2ccc3c(c2)OCCO3)cc1,"inconclusive: 35.5 µM [inhibitor, single point]"
7,CCCOC(=O)c1cccc(NC(=O)C(C)(C)C)c1,inactive
8,COc1ccc(Cn2cc3c(-c4ccc(F)cc4)nnc-3c3cc(OC)c(OC)cc32)cc1,"inconclusive: 5.62 µM [inhibitor, single point]"
9,Nc1cc(Cl)cc2c1-c1ccc(Cl)cc1C2,"inconclusive: 35.5 µM [inhibitor, single point]"
10,O=C(NCCCN1CCCCCC1)c1ccc2c(c1)sc1nc(-c3ccccc3)cn12,"inconclusive: 35.5 µM [inhibitor, single point]"
11,Cc1ccc(OCCn2cnc(Cl)c2Cl)cc1,"inconclusive: 8.91 µM [inhibitor, partial curve, poor fit]"
12,Cn1nc(C(F)(F)F)cc1-c1ccc(/C=C(\C#N)C(=O)c2ccccc2)s1,"inconclusive: 35.5 µM [inhibitor, single point]"
13,CC1(C)CC(=O)C/C(=N/NC(=O)c2ccc(-c3ccccc3)cc2)C1,"inconclusive: 11.2 µM [inhibitor, partial curve, poor fit]"
14,C=CCn1c(C2CCCCC2)n[nH]c1=S,"inconclusive: 22.4 µM [inhibitor, single point]"
15,CSC(=S)N/N=C(\C)c1ccccc1,"inconclusive: 0.631 µM [inhibitor, full curve, poor fit]"
16,CC(C)Oc1ccc(/C=N/NC(N)=S)cc1,inactive
17,CCCCN(C(=O)CNC(=O)c1ccco1)C(C(=O)NC1CCCCC1)c1ccc(OC)cc1OC (stereo not given),inactive
18,CS(=O)(=O)NN1C(=O)c2ccccc2NC1c1c[nH]c2ccccc12 (stereo not given),"inconclusive: 35.5 µM [inhibitor, single point]"
19,O=C(O)c1ccc(NC(=O)c2ccc(Cl)c(S(=O)(=O)N3CCCCCC3)c2)cc1,inactive
20,Cc1ccc([N+](=O)[O-])cc1Nc1nc(N2CCCC2)nc(N2CCCC2)n1,"inconclusive: 11.2 µM [inhibitor, single point]"
21,C/C(=N\Nc1nc2ccccc2[nH]1)c1ccc2c(c1)OCCO2,"inconclusive: 11.2 µM [inhibitor, partial curve, poor fit]"
22,O=c1cc(Br)c(O)c(Br)cc1Br,"inconclusive: 20 µM [inhibitor, single point]"

row,Structure (SMILES),Potency
1,O=C(Nc1ccc2oc(-c3ccc4ccccc4c3)nc2c1)c1cccs1,"inconclusive: 35.5 µM [inhibitor, single point]"
2,CCS(=O)(=O)c1ncc(Cl)c(C(=O)Nc2ccc(S(=O)(=O)N(C)c3ccccc3)cc2)n1,inactive
3,CCOC(=O)C1CCN(Cc2ccc(F)c(Br)c2)CC1,"inconclusive: 28.2 µM [inhibitor, single point]"
4,Fc1ccccc1N1CCN(c2nc3ccccc3n3nnnc23)CC1,"inconclusive: 15.8 µM [inhibitor, partial curve, poor fit]"
5,COc1cccc2sc(Nc3nnc(-c4ccc(F)cc4)o3)nc12,"inconclusive: 35.5 µM [inhibitor, single point]"
6,COC(=O)[C@H]1[C@H]2C[C@@H]3c4[nH]c5cc(OC)ccc5c4CCN3C[C@H]2C[C@@H](OC(=O)c2ccc(N)cc2)[C@@H]1OC,"inconclusive: 25.1 µM [inhibitor, single point]"
7,S=C(NCc1ccccc1)Nc1nccs1,"inconclusive: 5.62 µM [inhibitor, single point]"
8,Cc1c(NC(=O)c2cccs2)cccc1NC(=O)c1cccs1,"inconclusive: 6.31 µM [inhibitor, partial curve, poor fit]"
9,COc1cccc(NC(=O)CSc2nnc3ccc(-c4ccccn4)nn23)c1,"inconclusive: 5.01 µM [inhibitor, single point]"
10,N#Cc1c(-c2ccc(Cl)cc2)cc(-c2ccccc2)nc1SCC(=O)O,inactive
11,Clc1ccc(-c2nnc3sc(-c4ccc(Br)o4)nn23)c(Cl)c1,"inconclusive: 35.5 µM [inhibitor, single point]"
12,Cc1cc(=O)[nH]c(N/N=C/C2=C(N3CCOCC3)C(=C\c3ccc(Cl)cc3)/CC2)n1,"inconclusive: 35.5 µM [inhibitor, single point]"
13,Cc1cc(C)c(NC(=O)c2cc(C)nc3c2c(C)nn3-c2cccc(F)c2)c(C)c1,inactive
14,Cc1ccc(/C=C/C(=O)c2ccccc(=O)c2O)cc1C,"inconclusive: 3.55 µM [inhibitor, single point]"
15,O=C(O)Cn1c(-c2ccccn2)nc2ccccc21,"inconclusive: 8.91 µM [inhibitor, partial curve]"
16,O=C1NC(=Nc2ccccc2Cl)S/C1=C\c1cc([N+](=O)[O-])ccc1O,"inconclusive: 20 µM [inhibitor, partial curve, poor fit]"
17,Cc1cccc(NC(=O)CSc2nc3c([nH]c4ccccc43)c(=O)n2-c2cc(C)cc(C)c2)c1,"inconclusive: 14.1 µM [inhibitor, single point]"
18,CCC(CC)NC(=O)CSc1ccc(S(=O)(=O)N2CCCCC2)cn1,"inconclusive: 14.1 µM [inhibitor, single point]"
19,COc1cc(C2NC(=O)NC(C)=C2C(=O)OCc2ccc(C)cc2)cc(OC)c1O (stereo not given),inactive
20,COc1ccc(Nc2nc3c(S(=O)(=O)c4ccccc4)nnn3c3ccc(Cl)cc23)cc1,"inconclusive: 14.1 µM [inhibitor, partial curve, poor fit]"
21,CCOC(=O)c1sc(NC(=O)CSc2n[nH]c(C)n2)nc1C,"inconclusive: 5.62 µM [inhibitor, single point]"
22,O=C(C[n+]1cc(Br)cc2ccccc21)c1ccc(F)cc1,"inconclusive: 35.5 µM [inhibitor, single point]"

# Among those listed so far, these contain a cyano group:
row,Structure (SMILES),Potency
1,Cc1[nH]nc2c1C(C1CC=CCC1)C(C#N)=C(N)O2 (stereo not given),inactive
12,Cn1nc(C(F)(F)F)cc1-c1ccc(/C=C(\C#N)C(=O)c2ccccc2)s1,"inconclusive: 35.5 µM [inhibitor, single point]"
10,N#Cc1c(-c2ccc(Cl)cc2)cc(-c2ccccc2)nc1SCC(=O)O,inactive

# Next part.

row,Structure (SMILES),Potency
1,Cc1c(/C(O)=C2/C(=O)C(=O)N(CCN3CCOCC3)C2c2cccnc2)cnn1-c1ccccc1 (stereo not given),"inconclusive: 5.62 µM [inhibitor, single point]"
2,CCCCN(CC)CCNC(=S)Nc1ccc2nc(N3CCN(C)CC3)cc(C)c2c1,"inconclusive: 25.1 µM [inhibitor, single point]"
3,O=C(COc1ccc(F)cc1Br)NCC1(N2CCCCC2)CCCCC1,"inconclusive: 6.31 µM [inhibitor, single point]"
4,NS(=O)(=O)c1ccc(Cc2ncc(C(F)(F)F)cc2Cl)s1,inactive
5,CC1=NN(c2ccccc2)C(=O)C1=Cc1ccccc1,inactive
6,Brc1ccc(-c2csc3ncnc(-n4nnc5ccccc54)c23)cc1,"inconclusive: 6.31 µM [inhibitor, single point]"
7,COc1ccc(S(=O)(=O)N2CCN(c3ncccn3)CC2)cc1OC,inactive
8,COc1ccc(C2CC(O)(c3ccccc3)Oc3cc(OC)cc(OC)c32)cc1 (stereo not given),"inconclusive: 11.2 µM [inhibitor, partial curve, poor fit]"
9,O=C(NNC(=O)c1ccc(S(=O)(=O)N2CCOCC2)cc1)c1ccccc1,"inconclusive: 3.16 µM [inhibitor, single point]"
10,CCc1ccc(NC(=O)Cn2c(=O)c3cccn3c3ccccc32)cc1,"inconclusive: 25.1 µM [inhibitor, single point]"
11,CCN(CC)S(=O)(=O)c1ccc2c(c1)N(CC(=O)N1CCN(c3cccc(C)c3)C(C)C1)C(=O)CO2 (stereo not given),inactive
12,CCOC(=O)C1=C(C)N=C2SC(C(=O)OC)=CC(=O)N2C1c1ccc(F)cc1 (stereo not given),inactive
13,CC1CCC(C(C)C)C(OC(=O)COC(=O)c2ccc(N)cc2)C1 (stereo not given),inactive
14,CC(C)n1cnc2c(NCc3ccccc3)cc(OCC3CCN(C)CC3)cc21,"inconclusive: 31.6 µM [inhibitor, single point]"
15,CC(C)C[C@H]1CN([C@@H](Cc2ccc(O)cc2)CN2CCC[C@@H]2CN2C(=O)C(=O)NC[C@@H]2Cc2ccccc2)C(=O)C(=O)N1CC1CCCCCC1,"inconclusive: 35.5 µM [inhibitor, single point]"
16,COc1ccc(OC)c(S(=O)(=O)Nc2ccccc2SC)c1,"inconclusive: 3.16 µM [inhibitor, single point]"
17,COc1ccccc1/C=C1\SC(=S)N(CCC(=O)N2CCN(C)CC2)C1=O,"inconclusive: 6.31 µM [inhibitor, single point]"
18,COc1ccc(C(=O)/C=C/c2cn(CC(O)CN3CCCCCC3)c3ccccc23)cc1OC (stereo not given),"inconclusive: 35.5 µM [inhibitor, single point]"
19,O=[N+]([O-])c1cc(-c2nc(-c3ccccc3)no2)ccc1NCc1ccco1,"inconclusive: 3.98 µM [inhibitor, full curve, poor fit]"
20,CCOC(=O)C1(Cc2cccc(F)c2)CCN(C(=O)COC)CC1,"inconclusive: 12.6 µM [inhibitor, partial curve, poor fit]"
21,CN1CCN(Cc2cn(C)nc2-c2ccccc2F)CC1c1ccccc1 (stereo not given),"inconclusive: 3.55 µM [inhibitor, partial curve, poor fit]"

# By substructure, the compounds so far containing a COOH group (3)
row,Structure (SMILES),Potency
19,O=C(O)c1ccc(NC(=O)c2ccc(Cl)c(S(=O)(=O)N3CCCCCC3)c2)cc1,inactive
10,N#Cc1c(-c2ccc(Cl)cc2)cc(-c2ccccc2)nc1SCC(=O)O,inactive
15,O=C(O)Cn1c(-c2ccccn2)nc2ccccc21,"inconclusive: 8.91 µM [inhibitor, partial curve]"

# Source: PubChem BioAssay AID602313 (National Center for Advancing Translational Sciences (NCATS), 2012)
